# Results of single-concentration screens

Protein sequences, listed by entry. Tags and fused reporters are not part of them. Residues count along the entry.
UniProt A4I591, 1-473: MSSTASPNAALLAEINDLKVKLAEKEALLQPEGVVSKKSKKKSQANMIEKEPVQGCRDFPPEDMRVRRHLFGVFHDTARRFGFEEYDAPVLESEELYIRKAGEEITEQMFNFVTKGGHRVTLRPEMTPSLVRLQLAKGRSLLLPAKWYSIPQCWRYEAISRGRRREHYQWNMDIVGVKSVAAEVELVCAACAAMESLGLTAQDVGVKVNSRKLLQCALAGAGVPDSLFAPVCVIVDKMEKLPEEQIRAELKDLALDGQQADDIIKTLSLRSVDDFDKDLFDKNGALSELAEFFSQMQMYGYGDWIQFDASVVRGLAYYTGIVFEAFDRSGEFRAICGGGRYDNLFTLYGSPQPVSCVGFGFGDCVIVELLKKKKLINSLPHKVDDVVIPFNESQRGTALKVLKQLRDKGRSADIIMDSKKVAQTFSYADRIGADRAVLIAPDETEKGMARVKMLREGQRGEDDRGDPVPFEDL
UniProt P9WPC5, whole entry: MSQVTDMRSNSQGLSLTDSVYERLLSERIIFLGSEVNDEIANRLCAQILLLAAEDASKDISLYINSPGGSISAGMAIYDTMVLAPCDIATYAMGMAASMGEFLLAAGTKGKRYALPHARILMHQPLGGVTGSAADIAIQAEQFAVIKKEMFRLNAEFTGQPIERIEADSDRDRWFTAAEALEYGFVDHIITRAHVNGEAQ
UniProt P9WPC3, whole entry partner: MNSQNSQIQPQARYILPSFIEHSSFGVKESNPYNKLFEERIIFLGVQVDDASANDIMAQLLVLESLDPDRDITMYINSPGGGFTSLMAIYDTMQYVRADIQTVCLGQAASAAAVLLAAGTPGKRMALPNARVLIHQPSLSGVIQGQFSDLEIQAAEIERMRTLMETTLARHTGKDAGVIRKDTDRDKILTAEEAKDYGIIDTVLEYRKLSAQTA
UniProt Q4DA54, 1-478: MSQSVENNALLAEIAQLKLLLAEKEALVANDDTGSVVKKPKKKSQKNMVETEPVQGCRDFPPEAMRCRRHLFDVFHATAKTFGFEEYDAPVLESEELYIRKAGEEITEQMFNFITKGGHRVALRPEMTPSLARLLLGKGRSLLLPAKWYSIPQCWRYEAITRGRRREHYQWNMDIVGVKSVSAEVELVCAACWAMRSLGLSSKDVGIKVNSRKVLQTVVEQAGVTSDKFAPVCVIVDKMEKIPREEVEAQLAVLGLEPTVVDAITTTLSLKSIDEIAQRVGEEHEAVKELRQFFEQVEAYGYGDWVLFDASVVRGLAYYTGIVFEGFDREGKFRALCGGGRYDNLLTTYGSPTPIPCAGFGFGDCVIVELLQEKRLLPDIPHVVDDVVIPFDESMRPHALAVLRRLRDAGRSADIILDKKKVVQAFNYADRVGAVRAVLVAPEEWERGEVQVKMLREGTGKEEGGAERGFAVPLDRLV

Toxoplasma: 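Assay of Toxoplasma gondii numbers, read through their beta-galactosidase reporter with a colour substrate. Tested at 10 µM. Higher reads as fewer parasites (inferred from which compounds were picked for retests). About 67,000 compounds were tested under these conditions; 0.38% (about 260) showed 50% or more at least once.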
T. brucei: 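Whole-parasite assay of Trypanosoma brucei over 72 hours; the read-out is not stated. Tested at 30 µM. Direction is inferred from retests: higher values go with stronger inhibition. Values scatter widely below zero; nearly all retest evidence comes from the higher of the two concentrations used. Of about 64,000 compounds tested this way, about 940 (1.5%) reached 50% or more in at least one test.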
LiHisRS: 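Histidine-tRNA ligase, Leishmania infantum (UniProt A4I591). Enzyme assay of histidyl-tRNA synthetase; the read-out is not stated. Compounds at 30 µM. Direction is inferred from retests: higher values go with stronger inhibition. The assay is labelled LdHisRS but filed under L. infantum. Of about 69,000 compounds tested this way, about 410 (0.6%) reached 50% or more in at least one test.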
ClpP1P2: 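ClpP1P2, Mycobacterium tuberculosis (UniProt P9WPC5 and UniProt P9WPC3). Protease assay of ClpP1P2, read by the AMC dye that it sets free. Compounds at 50 µM. Direction is inferred from only a few compounds that gave an IC50; most scored high, so higher reads as stronger inhibition. Most other retested compounds had strongly negative values. Size under these conditions: about 69,000 compounds, about 10 of them at 50% or above in at least one test.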
TcHisRS: 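Enzyme assay of histidyl-tRNA synthetase; the read-out is not stated. Target: Histidine-tRNA ligase, Trypanosoma cruzi CL Brener (UniProt Q4DA54). Tested at 30 µM. Direction is inferred from retests: higher values go with stronger inhibition. Size under these conditions: about 69,000 compounds, about 31 of them at 50% or above in at least one test.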

Each number is a percent effect as filed. The record does not define 0% and 100%; most values in the screen are far below 50% and negative numbers occur (in some assays of this library far below -100). The compounds are a random part of those screened. A dash means the value is not listed here; it may have been measured.

compound	Toxoplasma	T. brucei	LiHisRS	ClpP1P2	TcHisRS
CNC(=O)CN1CCCC(Cc2ccccc2OC)C1 (stereo not shown)	-6.138	99.76	18.18	4.382	-2.521
COc1ccccc1N1CCC(CNC(=O)N(C)Cc2ccco2)C1 (stereo not shown)	-6.198	-10.72	5.051	-0.6895	9.677
COc1cc(CCC(C)O)c(OC)c2c1OCO2 (stereo not shown)	2.271	-47.67	0	3.562	1.639
Cc1n[nH]c(C2CN(C(=O)CCc3ccco3)CCO2)n1 (stereo not shown)	1.86	0.9308	28.57	9.192	6.522
Cc1cc(C)n(CCN2CCN(C(=O)c3ccccc3Br)CC2)n1	-5.792	6.861	15.65	2.526	8.247
CC(C)Nc1nc(N2CCCC2)nc2c1CN(C(C)C)CC2	-2.03	99.66	26.42	4.961	13.51
COc1ccc(NC(=O)CCC(C)C)c(N2CCN(C(C)=O)CC2)n1	-2.197	-25.17	11.61	7.06	0
CCc1ccc(C(=O)N2CCC3(CCC(=O)N(CCN(C)C)C3)CC2)[nH]1	-23.93	-19.86	12	-3.14	6.358
CCN1CCOC(CNCc2ccc(OC)c(F)c2)C1 (stereo not shown)	2.947	-29.17	-0.8929	-0.9017	3.448
CO[C@H]1CC[C@H]2[C@H]1OCCN2C(=O)CC1=CCCCC1	-	-	15.38	1.95	9.497
CCc1nc(CN(C)C(=O)NC(C)c2cccc(NC(C)=O)c2)cs1 (stereo not shown)	0.649	-22.62	4.762	2.419	2.02
COCCn1ccc(=O)c(OCC(=O)Nc2cccc(OC)c2)c1C	-2.695	-17.43	11.96	3.394	3.96
O=c1ncn(-c2ccccc2F)c2ncccc12	11.65	-15.96	19.54	11.86	15.46
CC1Cc2cc(-c3cncn3CC(=O)NC(C)(C)C)ccc2N1C.Cl (stereo not shown)	18.86	-38.55	-	-	-
Cc1ccc(OCCC(=O)NC2CCc3nc(C)cn3C2)cc1 (stereo not shown)	-1.056	31.69	20	-8.349	3.261
Cl.O[C@@H]1CN(Cc2ccc(F)cc2)CC[C@H]1NCc1ccccn1	-1.456	5.839	-	-	-
CC(C)Cc1ncc2c(n1)CN(c1nc3ccccc3cc1CO)C2	0.06705	21.72	18.37	-2.556	12.31
CC(C)NC(=O)[C@@H]1C[C@H]2NCC[C@H]2O1	-	-	-148.2	-2.979	1.058
Cc1cnn(-c2cccc(N3CCCC3)n2)c1	-0.1517	-7.02	21.13	-1.409	10.5
O=C(NCC1CC1)C1CCC2(CCN(C(=O)c3ccccn3)CC2)O1.O=C(O)C(F)(F)F (stereo not shown)	-0.7392	-18.32	-	-	-
CC(=O)N1N=C(c2ccccc2)OC1C(=O)NCC(=O)OC(C)(C)C (stereo not shown)	-16.27	12.23	15.84	-11.33	9.091
NC(=O)CCSc1ccccc1NCc1ccc(Cl)s1	-0.08097	-25.68	22.22	-6.944	-0.6135
[H][C@@]12COC[C@]1(COCc1cccc(C)n1)CN(c1ncccn1)C2	-1.941	46.21	-	-	-
CCC(CNC(=O)c1ccc(F)cc1F)N1CCc2ccccc2C1 (stereo not shown)	2.908	-41.14	17.81	3.719	3.941
Cc1noc(C)c1Cc1nc(C2CC2)no1	-6.226	-34.38	9.677	2.002	6.548
CC(C)c1nnc2n1CCN(C(=O)c1ccnc(N(C)C)c1)C2	21.5	-2.188	20.27	-1.862	2.642
CN(Cc1nnc(C2CC2)n1C)C1CCN(CCS(C)(=O)=O)C1 (stereo not shown)	-0.5017	-34.92	-1.613	-17.45	2.041
CC(C(=O)Nc1cnn(CC(N)=O)c1)c1ccc(Cl)s1 (stereo not shown)	4.32	-13.35	2.667	-3.703	5.978
Cc1ccc([C@@H]2CN(C(=O)c3cc(C)n[nH]3)C[C@H]2NC(=O)C2CC2)cc1	-9.52	-27.82	13.89	10.21	0
O=C(c1ccc(-c2cccc3c2CCNC3)o1)N1CCCCC1	-2.186	-5.458	29.51	-9.872	15.2
CCc1csc(CCNC(=O)CC2CCN(C(C)C)CC2)n1	-21.04	-17.77	11.57	4.102	1.02
NS(=O)(=O)NCc1cc(-c2ccco2)n(CC(F)(F)F)n1	-5.927	-11.2	20	4.995	11.3
CCOCCNCC1CCN(CCO)CC1	6.998	-14.91	13.33	0.2491	3.922
Cc1cccc(-c2nc(CNC3CCc4nc(C)nn4C3)no2)c1 (stereo not shown)	9.458	-19	4.464	-4.779	4.046
COC(=O)c1ccc(NCc2csc(C)n2)cc1Cl	-	-18.86	13.04	-3.825	1.98
[H][C@@]12COC[C@@H](Cc3nnc(C)o3)[C@]1([H])CN(c1cc(OC)ncn1)C2	8.876	-14.45	-	-	-
Cn1ccc(C(=O)NC2CCC23CCN(Cc2cnn(C)c2)CC3)c1 (stereo not shown)	-	-	15.96	-1.412	7.035
Cc1ncc(CNc2cnccc2CO)s1	-5.827	-9.686	15.25	-22.87	1.463
CC(C(=O)N1CCCN(c2ccc(C#N)cc2)CC1)n1ccnc1 (stereo not shown)	-12.7	19.27	15.2	5.036	1.901
Cc1cc(C)nc(N2CCC(Cn3cc(C(N)=O)cn3)CC2)n1	6.878	4.959	14.49	-13.99	4.545
Cc1nc([C@@H]2C[C@H]3CN(Cc4scnc4C)C[C@H]3O2)no1	-	-	17.11	-2.997	10.87
Cc1cccnc1NC(=O)C1CCCN(c2cccc(C(F)(F)F)n2)C1 (stereo not shown)	-0.9135	2.752	22.58	-1.199	0.6494
Cc1cccc(NC(=O)N2CCCn3cnc(CN4CCCC4)c3C2)c1	-	-	21.15	1.421	4.813
COc1cccc(CN2CCCCCC2c2cccc(C)c2)c1O (stereo not shown)	-0.1109	-7.245	16.5	-11.54	4.348
O=C(O)C(F)(F)F.O=C(O)C(F)(F)F.[H][C@@]12CN(Cc3ccsc3)C[C@@]1([H])N(Cc1ccncc1)C(=O)CO2	2.913	37.55	-	-	-
Cc1ncsc1CCN(C)C(=O)CN1CCOc2ccccc2C1	2.742	13.13	15.38	-6.52	3.933
CC(C)N(C)S(=O)(=O)N(C)Cc1ccc2c(c1)OCO2	5.4	6.348	24.66	9.883	-3.053
Fc1cccc(N2CCCC3(CN(Cc4nccs4)CCO3)C2)c1.O=C(O)C(F)(F)F.O=C(O)C(F)(F)F (stereo not shown)	19.12	9.59	-	-	-
NC(=O)C1CCN(C(=O)NC(Cc2ccccc2)C(F)(F)F)CC1 (stereo not shown)	-7.788	-2.28	17.33	-3.112	4.762
NC(=O)N1CCCN(CC(=O)NCCc2c(F)cccc2F)CC1	-21.61	-19.48	6.25	-7.195	6.383
O=C(O)C(F)(F)F.[H][C@@]12CCN(C3CCOCC3)C[C@]1([H])[C@@H](CNC(=O)c1cnn(C)c1)OC2	-21.6	-	-	-	-
CNC(=O)c1sc2ncccc2c1C1CCN(C(=O)CCOC)C1 (stereo not shown)	4.932	-15.75	4.196	-1.078	0
Cc1ccc(N2CCCC(NCC(=O)NCC3CC3)C2)nn1 (stereo not shown)	0.9561	20.27	18.92	1.736	5.639
CO[C@@H]1CCN(S(=O)(=O)c2cccnc2)[C@@H]2CN(CC3CC3)C[C@@H]21	-	-	26	2.079	7.843
CCNC(c1ccc(C)cc1)c1cccnc1 (stereo not shown)	-17.28	8.952	10.53	-0.01084	2.006
O=C(Nc1cccc(OCc2ccc(F)cc2)c1)C1COCCO1 (stereo not shown)	-6.828	24.68	0.9709	-2.276	-2.075
Cc1ncc(CC(=O)N2CCC(N3C[C@@H](C)O[C@@H](C)C3)CC2)c(=O)[nH]1	-1.21	-36.31	8.602	-8.175	-18.32
CCCS(=O)(=O)N1CC(=O)N(Cc2cccc(OC)c2OC)CC(O)C1 (stereo not shown)	-26.06	-33.29	6.122	16	6.742

6 of the entries, repeated:

compound	Toxoplasma	T. brucei	LiHisRS	ClpP1P2	TcHisRS
Cc1ncc(CC(=O)N2CCC(N3C[C@@H](C)O[C@@H](C)C3)CC2)c(=O)[nH]1	-1.21	-36.31	8.602	-8.175	-18.32
O=C(O)C(F)(F)F.[H][C@@]12CCN(C3CCOCC3)C[C@]1([H])[C@@H](CNC(=O)c1cnn(C)c1)OC2	-21.6	-	-	-	-
COc1ccccc1N1CCC(CNC(=O)N(C)Cc2ccco2)C1 (stereo not shown)	-6.198	-10.72	5.051	-0.6895	9.677
COc1cc(CCC(C)O)c(OC)c2c1OCO2 (stereo not shown)	2.271	-47.67	0	3.562	1.639
Cc1cc(C)nc(N2CCC(Cn3cc(C(N)=O)cn3)CC2)n1	6.878	4.959	14.49	-13.99	4.545
Cc1ncsc1CCN(C)C(=O)CN1CCOc2ccccc2C1	2.742	13.13	15.38	-6.52	3.933

Measurements from “University of Dundee, Small-Polar-MMV Screening Library” (2021), ChEMBL document CHEMBL3988442.